# Experimental data: the supplement of paper PMC12823440, “Inhibitors supercharge kinase turnover through native proteolytic circuits” (Nature, 2025)
# Sequences of proteins named here, by UniProt entry; tags and fusion partners are left off. A change or cut given only in a name is not applied to a line headed by its entry.
# UniProt P07947, whole entry, looked up: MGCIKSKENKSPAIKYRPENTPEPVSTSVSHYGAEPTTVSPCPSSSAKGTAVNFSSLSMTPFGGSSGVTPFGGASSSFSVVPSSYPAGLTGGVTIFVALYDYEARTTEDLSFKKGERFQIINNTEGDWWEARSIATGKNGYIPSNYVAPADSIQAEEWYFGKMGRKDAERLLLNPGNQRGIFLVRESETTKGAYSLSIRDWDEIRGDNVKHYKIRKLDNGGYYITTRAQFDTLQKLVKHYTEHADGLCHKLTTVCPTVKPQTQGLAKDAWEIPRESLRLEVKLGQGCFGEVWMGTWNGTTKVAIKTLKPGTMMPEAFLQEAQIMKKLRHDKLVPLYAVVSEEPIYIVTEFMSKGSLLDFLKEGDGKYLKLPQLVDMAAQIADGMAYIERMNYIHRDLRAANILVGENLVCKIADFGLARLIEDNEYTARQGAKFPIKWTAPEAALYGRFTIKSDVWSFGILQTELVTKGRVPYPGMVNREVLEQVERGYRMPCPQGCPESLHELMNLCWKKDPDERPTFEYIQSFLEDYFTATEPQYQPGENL
# UniProt P43403: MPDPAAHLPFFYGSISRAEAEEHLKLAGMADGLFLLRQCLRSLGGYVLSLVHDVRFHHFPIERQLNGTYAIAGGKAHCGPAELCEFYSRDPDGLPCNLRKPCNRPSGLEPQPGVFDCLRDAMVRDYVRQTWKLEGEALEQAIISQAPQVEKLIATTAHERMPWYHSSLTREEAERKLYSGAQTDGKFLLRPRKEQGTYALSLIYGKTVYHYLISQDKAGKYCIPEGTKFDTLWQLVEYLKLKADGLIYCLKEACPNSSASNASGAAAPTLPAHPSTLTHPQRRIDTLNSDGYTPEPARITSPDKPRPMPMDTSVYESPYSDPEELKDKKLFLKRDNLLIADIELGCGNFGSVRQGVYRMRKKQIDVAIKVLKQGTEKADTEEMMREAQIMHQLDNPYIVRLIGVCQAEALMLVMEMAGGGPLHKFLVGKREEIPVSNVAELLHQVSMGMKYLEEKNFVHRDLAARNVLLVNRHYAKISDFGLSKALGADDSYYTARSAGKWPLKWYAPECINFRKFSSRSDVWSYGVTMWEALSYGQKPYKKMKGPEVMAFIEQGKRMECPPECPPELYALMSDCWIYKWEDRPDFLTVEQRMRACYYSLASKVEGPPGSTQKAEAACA
# UniProt P11802: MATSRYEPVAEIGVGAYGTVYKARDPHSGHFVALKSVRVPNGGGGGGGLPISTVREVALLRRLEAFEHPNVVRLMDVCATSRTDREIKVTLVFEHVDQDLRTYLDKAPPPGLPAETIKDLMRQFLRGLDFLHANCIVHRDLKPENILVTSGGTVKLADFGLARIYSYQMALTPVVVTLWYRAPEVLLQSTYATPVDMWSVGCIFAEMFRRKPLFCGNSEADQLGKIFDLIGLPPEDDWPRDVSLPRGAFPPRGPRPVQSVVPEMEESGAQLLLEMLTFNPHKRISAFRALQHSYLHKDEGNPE
# UniProt P50613: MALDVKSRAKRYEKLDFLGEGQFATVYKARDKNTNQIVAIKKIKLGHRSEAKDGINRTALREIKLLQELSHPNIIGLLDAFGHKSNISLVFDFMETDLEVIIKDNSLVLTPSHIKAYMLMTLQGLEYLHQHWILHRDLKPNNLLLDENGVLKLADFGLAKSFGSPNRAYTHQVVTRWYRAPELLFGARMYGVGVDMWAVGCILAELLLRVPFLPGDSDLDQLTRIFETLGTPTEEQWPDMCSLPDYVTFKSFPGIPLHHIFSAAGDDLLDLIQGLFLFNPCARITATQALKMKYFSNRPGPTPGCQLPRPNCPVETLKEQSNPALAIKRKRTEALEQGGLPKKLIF
# UniProt P50750, whole entry: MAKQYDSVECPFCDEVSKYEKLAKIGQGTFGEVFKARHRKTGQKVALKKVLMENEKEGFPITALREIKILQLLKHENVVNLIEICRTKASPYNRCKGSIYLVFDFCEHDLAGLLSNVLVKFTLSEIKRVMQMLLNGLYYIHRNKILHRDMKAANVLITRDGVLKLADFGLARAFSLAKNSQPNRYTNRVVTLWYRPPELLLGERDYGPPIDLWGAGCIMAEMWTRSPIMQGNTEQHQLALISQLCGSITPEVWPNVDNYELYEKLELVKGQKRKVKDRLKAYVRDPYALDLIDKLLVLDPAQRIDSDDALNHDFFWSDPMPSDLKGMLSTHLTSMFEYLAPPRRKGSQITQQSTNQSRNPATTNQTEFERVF
# Where a name gives a salt, the structure may show the parent alone. The list shows a part of the results. The calls rarely recur for the same compound in another form.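 Kinases were expressed as nanoluciferase fusions in K562 cells and luminescence was read every 4 h between 2 and 18 h as percent of control, DMSO set to 100% and a positive control to 0%. A time point counts as decreased when the signal drops significantly (2 sigma). The hit call is the authors' own, does not follow from the count of time points alone, and its rule is not shown.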
# Assays:
# Conditions in all cases: K562; 2-18 h
# YES1 = YES1 (UniProt P07947); assay: number of time points (of 5) at which kinase-Nluc abundance scored as decreased, DMSO-normalised (count); higher = more persistent destabilization
# ZAK = ZAK (UniProt Q9NYL2); assay: as above
# ZAP70 = ZAP70 (UniProt P43403); assay: as above
# CDK4 = CDK4 (UniProt P11802); assay: number of time points (of 4; 2 h point missing) at which kinase-Nluc abundance scored as decreased, DMSO-normalised (count); higher = more persistent destabilization
# CDK7 = CDK7 (UniProt P50613); assay: as above
# CDK9 = CDK9 (UniProt P50750); assay: as above
Compound,number of time points (YES1),number of time points (ZAK),number of time points (ZAP70),number of time points (CDK4),number of time points (CDK7),number of time points (CDK9)
Nc1c(C(=O)NCc2ccc(C(=O)NCCCC3CCCCC3)cc2)cnn1-c1ccccc1 (2.5 µM),0,0,0,0,0,0
C[C@H](Nc1ncnc2[nH]cnc12)c1cc2ccc(F)cc2nc1-c1ccccn1 (10 µM),0,0,0,0,0,0
CC(C)C[C@@H](C(=O)Nc1ccn(C[C@@H](O)CO)n1)N1CC(Oc2ccccc2Cl)=CC1=O [Dorzagliatin] (10 µM),0,0,0,0,0,0
C=CC(=O)Nc1cc(-n2c(=O)ccc3cnc4ccc(-c5ccc(NS(C)(=O)=O)cc5)cc4c32)ccc1C (10 µM),0,0,0,0,0,0
O=Nc1c2[nH]c3ccccc3nc-2c2ccccc12 [IQ-1S (free acid)] (2.5 µM),0,0,0,0,0,0
COc1ccc(-c2c(C)nn3c(NCCN4CCOCC4)cc(C)nc23)cc1OC (10 µM),0,0,0,0,0,0
COc1cc(N(C)CCN(C)C)c(N)cc1Nc1nccc(-c2cn(C)c3ccccc23)n1 [Mutated EGFR-IN-1] (10 µM),0,0,0,0,0,0
CC(C)c1cc(/C=C(\C#N)C(=O)NCCCc2ccccc2)cc(C(C)C)c1O (10 µM),0,0,0,0,0,1
C=CC(=O)N1CCC[C@H](n2c(=O)n(-c3ccc(Oc4ccccc4)cc3)c3c(N)ncnc32)C1 [ONO-4059 (analog)] (10 µM),0,0,0,0,0,0
CCN(CC)c1cc2oc(=O)c(-c3nc4ccccc4o3)cc2cc1C (2.5 µM),0,0,0,0,0,0
CCc1ccc(OCC(=O)Nc2ccc(F)c([N+](=O)[O-])c2)cc1 (10 µM),0,0,0,0,0,0
Cn1cc(-c2cnc3cnn(S(=O)(=O)c4cnc5ccc(-c6cnn(C)c6)cn45)c3c2)cn1 [Glumetinib] (10 µM),0,0,0,0,0,0
CC(=O)c1c(C)c2cnc(Nc3ccc(N4CCN(C(=O)CNc5cccc6c5C(=O)N(C5CCC(=O)NC5=O)C6=O)CC4)cn3)nc2n(C2CCCC2)c1=O (stereo unspecified) (10 µM),0,0,0,4,0,0
O=C(Nc1nc2ccc(NC(=O)C34CC5CC(CC(C5)C3)C4)cc2s1)c1ccccc1 (10 µM),0,0,0,0,0,0
CNC(=O)c1ccccc1Nc1nc(Nc2ccc3c(c2OC)CCC[C@H](N2CCN(CCO)CC2)C3)ncc1Cl (10 µM),1,0,0,0,1,0
Cc1cc(Nc2nc(CC3(C(=O)O)CCN(C(=O)c4cccc(Cl)c4Cl)CC3)ccc2F)n[nH]1 (10 µM),1,0,0,0,3,0
CCn1c(=O)c(-c2cc[nH]n2)cc2c(C)nc(N)nc21 [Voxtalisib] (10 µM),0,0,0,0,0,0
COc1cc2ncnc(Nc3ccccc3)c2cc1OC (10 µM),0,0,0,0,0,0
C[C@@H]1CC(=O)c2c(ccc3c2C(=O)c2cccc(O)c2C3=O)C1 [Ochromycinone] (10 µM),0,0,0,0,0,0
N#Cc1c2nc3ccccc3nc2n2ccc(NC(=O)c3cccs3)cc12 (10 µM),0,0,0,0,0,0
c1ccc(-c2nc(=NCCN3CCOCC3)sn2-c2ccccc2)cc1 [VP3.15 (dihydrobromide)] (10 µM),0,0,0,0,0,0
COc1ccc(-c2coc3cc(O)ccc3c2=O)cc1 [Formononetin] (10 µM),0,0,0,0,0,0
Cc1nc(-c2cnn(C)c2)nc2c1[nH]c1ncc(-c3ccc(N4CCN(C)CC4)cc3)cc12 [GNE 220 (hydrochloride)] (10 µM),0,0,0,0,0,0
Cc1nn(C)c2c1C(c1ccc(C(F)(F)F)cc1)C(C#N)=C(N)O2 (stereo unspecified) (10 µM),0,0,0,0,0,0
O=C1O[C@H]([C@@H](O)CO)C(O)=C1OP(=O)(O)O [2-Phospho-L-ascorbic acid (trisodium)] (10 µM),0,0,0,0,0,0
Cc1cnc(-c2ccc(-c3ccc(NC(=O)Nc4cccc(C(F)(F)F)c4)cc3F)c3c2C(=O)NC3)[nH]1 (10 µM),0,0,0,0,1,2

Compound,number of time points (YES1),number of time points (ZAK),number of time points (ZAP70),number of time points (CDK4),number of time points (CDK7),number of time points (CDK9)
CN(C)c1nc2c(Br)c(Br)c(Br)c(Br)c2[nH]1 (10 µM),0,0,0,0,0,0
N[C@@H](CCC(=O)O)C(=O)N[C@@H](Cc1c[nH]c2ccccc12)C(=O)O [Oglufanide] (10 µM),0,0,0,0,0,0
C[C@H](NC(=O)[C@H]1NCC[C@@H]1O)c1ccc(-c2noc(CCC3CCCC3)n2)cc1 (10 µM),0,0,0,0,0,0
CS(=O)(=O)c1ccc(-c2cnc(N)c(-c3ccc(C(F)(F)F)nc3)c2)cc1 (10 µM),0,0,0,0,0,0
CNc1nc(Nc2cn(C(C)(C)C#N)nc2C)ncc1C(F)(F)F (10 µM),0,0,0,0,0,0
COc1ccc2cc(-c3nc(-c4ccc([S+](C)[O-])cc4)[nH]c3-c3ccncc3)ccc2c1 (stereo unspecified) [Tie2 kinase inhibitor 1] (2.5 µM),0,0,0,0,0,0
Cn1ncc2cc(-c3cnc(N)c(Cl)c3N3CCC4(CCNC4=O)CC3)ccc21 (10 µM),0,0,0,0,1,0
O=[N+]([O-])c1ccc2c(c1)S(=O)(=O)C=C2 [Stattic] (2.5 µM),0,0,0,0,1,0
COc1ccc(S(=O)(=O)NCc2ccc(C(=O)NCCc3ccc(Cl)cn3)cc2)cc1 (10 µM),0,0,0,0,0,0
C#Cc1cccc(Nc2ncnc3cc(OC)c(OCCCCCCC(=O)NO)cc23)c1 (2.5 µM),0,0,0,0,0,0
Oc1ccc(/C=C/c2cc(O)cc(F)c2)cc1 [Resveratrol analog 1] (10 µM),0,0,0,0,0,0
COc1cc2ncnc(-n3nc(-c4ccccn4)nc3N)c2cc1OC (10 µM),0,0,0,0,0,0
CN1C(=O)[C@@H](NC(=O)c2n[nH]c(Cc3ccccc3)n2)COc2ccccc21 (10 µM),0,0,0,0,0,0
CCCNC(=O)Nc1ccc(Oc2ncnc3cc(OC)c(OC)cc23)cc1Cl (2.5 µM),0,0,0,0,0,0
C[C@H](Nc1ncnc2nc[nH]c12)c1cc2cccc(Cl)c2c(=O)n1-c1ccccc1 [Duvelisib] (10 µM),0,0,0,0,0,0
Cc1ncc(NC(=O)NC2c3ccccc3-c3ccccc32)c(-c2ccccc2)n1 (10 µM),0,0,0,0,0,0
O[C@@H]1CO[C@H]2[C@@H]1OC[C@H]2Oc1nc2nc(-c3ccc(-c4ccccc4)cc3)c(Cl)cc2[nH]1 (10 µM),0,0,0,0,0,0
NC(=S)n1[nH]c(-c2ccc([N+](=O)[O-])cc2)c(N=Nc2cccc(Cl)c2)c1=O (2.5 µM),0,0,0,0,0,0
Nc1cccc(-c2cc3c(Oc4cccc(O)c4)ncnc3[nH]2)c1 (10 µM),1,0,0,0,2,2
O=C1/C(=C\c2ccc(Cl)cc2)C=C(c2ccccc2)N1c1ccc(O)cc1 (2.5 µM),0,0,0,0,0,0
C=CC(=O)Nc1cccc(-c2cccc3cnc(Nc4ccc(N5CCN(CCO)CC5)c(F)c4F)nc23)c1 [Olafertinib] (2.5 µM),0,0,0,0,0,0
Cn1cc2cc(C(F)(F)c3nnc4ccc(-c5cnn(C6CC6)c5)nn34)c(F)cc2n1 [Bozitinib] (10 µM),0,0,0,0,0,0
Cc1cc2sc(NC(=O)Cc3ccccc3)nc2cc1Cl (10 µM),0,0,0,0,0,0
Cc1ccc(-c2csc3ncnc(SCCC(=O)O)c23)cc1 (10 µM),0,0,0,0,0,0
CNc1cc(Nc2cccn(-c3ccccn3)c2=O)nn2c(C(=O)N[C@@H]3C[C@@H]3F)cnc12 (2.5 µM),0,0,0,0,0,0
CN1CCC(c2ccccc2CC(C)(C)Nc2nc(N3CCOCC3)nc(-n3c(C(F)F)nc4ccccc43)n2)CC1 [Zandelisib] (10 µM),0,0,0,0,0,0

# Looked up one by one from the entries so far (five):
Compound,number of time points (YES1),number of time points (ZAK),number of time points (ZAP70),number of time points (CDK4),number of time points (CDK7),number of time points (CDK9)
O=[N+]([O-])c1ccc2c(c1)S(=O)(=O)C=C2 [Stattic] (2.5 µM),0,0,0,0,1,0
CNc1cc(Nc2cccn(-c3ccccn3)c2=O)nn2c(C(=O)N[C@@H]3C[C@@H]3F)cnc12 (2.5 µM),0,0,0,0,0,0
Cc1ncc(NC(=O)NC2c3ccccc3-c3ccccc32)c(-c2ccccc2)n1 (10 µM),0,0,0,0,0,0
C#Cc1cccc(Nc2ncnc3cc(OC)c(OCCCCCCC(=O)NO)cc23)c1 (2.5 µM),0,0,0,0,0,0
Cn1ncc2cc(-c3cnc(N)c(Cl)c3N3CCC4(CCNC4=O)CC3)ccc21 (10 µM),0,0,0,0,1,0

# Next part

Compound,number of time points (YES1),number of time points (ZAK),number of time points (ZAP70),number of time points (CDK4),number of time points (CDK7),number of time points (CDK9)
CC(C)(O)[C@H]1CC[C@H](Nc2ccc3ncc(-c4cccc(C(F)(F)F)c4)n3n2)CC1 (10 µM),0,0,0,0,0,0
O=C(Nc1nc2ccccc2[nH]1)c1cccc([N+](=O)[O-])c1 [IRAK-4 protein kinase inhibitor 2] (10 µM),0,0,0,0,0,0
Cn1cc(C2=C(c3cccc(N)c3)C(=O)NC2=O)c2ccccc21 (10 µM),0,0,0,0,0,0
CCN(CC)c1ccc2cc(-c3nc4cc(C)ccc4o3)c(=O)oc2c1 (10 µM),0,0,0,0,0,0
COc1ccccc1C(=O)/C=C/c1ccccc1C(=O)O (10 µM),0,0,0,0,0,0
NC(=O)c1cnc2[nH]ccc2c1N[C@@H]1[C@@H]2CC3C[C@H]1C[C@@](O)(C3)C2 [Peficitinib] (10 µM),1,0,0,0,1,0
COc1cc2ncnc(Nc3ccc(F)c(Cl)c3)c2cc1NC(=O)/C=C/CN1CCCCC1 [Dacomitinib] (10 µM),0,0,0,0,1,0
Cc1ccc(NC(=O)c2ccnc(C(F)(F)F)c2)cc1-c1cc(OCCO)nc(N2CCOCC2)c1 (10 µM),0,0,0,0,0,0
Cc1cc(-c2ccnc(Nc3cnn(C)c3)n2)ccc1CNC(=O)N1CC(OC(C)C)C1 (10 µM),0,0,0,0,0,0
COc1c(Nc2cc(C)[nH]n2)nc(Sc2ccc(S(=O)(=O)Cc3cccc([N+](=O)[O-])c3F)cc2F)nc1N1CCCCC1 [Centrinone-B] (2.5 µM),0,0,0,2,0,3
O=[N+]([O-])c1ccc(Nc2nc(N3CCOCC3)nc(N3CCOCC3)n2)cc1 (10 µM),0,0,0,0,0,0
CC(C)=CCc1c(-c2ccc(O)cc2O)oc2c3c(cc(O)c2c1=O)OC(C)(C)C=C3 [Morusin] (2.5 µM),0,0,0,0,0,0
C=CC(=O)N1C[C@H](COc2nc(Nc3cnn(C)c3)nc3[nH]cc(Cl)c23)[C@@H](OC)C1 (2.5 µM),0,0,0,0,0,0
Cc1cc(Nc2ncnc3ccc(-c4ccc(CNCCS(C)(=O)=O)o4)cc23)ccc1Oc1ccn2ncnc2c1 [ARRY-380 (analog )] (2.5 µM),0,0,0,0,0,0
O=C(O)c1cc(=O)c2c(OCC(O)COc3cccc4oc(C(=O)O)cc(=O)c34)cccc2o1 [Cromolyn (sodium)] (10 µM),0,0,0,0,0,0
COc1ccc(N=Nc2c(N)n[nH]c2N)cc1 (10 µM),0,0,0,0,0,0
C[C@@H]1O[C@@H](O[C@@H]2[C@@H](O)[C@H](OCCc3ccc(O)c(O)c3)O[C@H](CO)[C@H]2OC(=O)/C=C/c2ccc(O)c(O)c2)[C@H](O)[C@H](O)[C@H]1O [Verbascoside] (10 µM),0,0,0,0,0,0
CCCCCCCCCCCCCCCCOP(=O)([O-])OCC[N+](C)(C)C [Miltefosine] (10 µM),0,0,0,0,0,0
CC[C@@](C)(Nc1ccnc(-c2c[nH]c3ncccc23)n1)C(=O)NCC(F)(F)F [Decernotinib] (10 µM),0,0,0,0,0,0
CC1(C)Cc2c(sc(NC(=S)NC(=O)c3ccccc3)c2C(=O)O)CO1 (10 µM),0,0,0,0,0,0
O=C1NC(=O)C(c2cnc3ccccn23)=C1c1cn2c3c(cc(F)cc13)CNCC2 [GSK-3 inhibitor 1] (2.5 µM),0,0,0,0,0,0
Cc1ccc(NC(=O)c2ccc(CN(CCN(C)C)C(=O)c3cccnc3)cc2)cc1Nc1nccc(-c2cccnc2)n1 [PDGFRα kinase inhibitor 1] (10 µM),0,0,0,0,0,0
Cc1ccn2c(C(=O)C(=O)c3ccccc3)c(-c3ccccc3)nc2c1 (10 µM),0,0,0,0,0,0
O=C(NCc1cccc(O)c1)Nc1nc(-c2ccncc2)cs1 (10 µM),0,0,0,0,0,0
